According to article PMC5514062:
These are yes or no findings as the source states them, for the method shown. In cells and extracts the contact can be indirect. Some entries that bind do so weakly or less than the wild type. For some of these results: Where a sequence is shown, tags or fusion partners need not be part of it. Each block holds one binder with its values, some of them ahead of it.

Experiments:
[1] = biological target: T1, heat shock protein 20 (mouse (endogenous in heart)) (UniProt Q5EBG6); assay: co-IP; IP-AC assay: WT or AC9-/- mouse heart extracts (also SAN, LV, RA homogenates) immunoprecipitated with anti-Yotiao or anti-Hsp20 (pre-immune or IgG control); associated AC activity stimulated with 300 nM Gαs and measured
T1 sequence: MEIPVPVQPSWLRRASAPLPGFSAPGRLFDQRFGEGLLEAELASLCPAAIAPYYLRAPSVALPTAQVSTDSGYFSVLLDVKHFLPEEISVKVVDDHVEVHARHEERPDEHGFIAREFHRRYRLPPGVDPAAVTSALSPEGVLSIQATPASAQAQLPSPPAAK

Flag-tagged AC9 (human) = biological target: T2, Flag-tagged AC9 (human) (UniProt O60503); assay: co-IP; HEK293 cells transfected with Flag-AC9, myc-Yotiao and V5-Hsp20 as indicated; lysates immunoprecipitated with anti-Flag or anti-Hsp20, western blot
T2 sequence: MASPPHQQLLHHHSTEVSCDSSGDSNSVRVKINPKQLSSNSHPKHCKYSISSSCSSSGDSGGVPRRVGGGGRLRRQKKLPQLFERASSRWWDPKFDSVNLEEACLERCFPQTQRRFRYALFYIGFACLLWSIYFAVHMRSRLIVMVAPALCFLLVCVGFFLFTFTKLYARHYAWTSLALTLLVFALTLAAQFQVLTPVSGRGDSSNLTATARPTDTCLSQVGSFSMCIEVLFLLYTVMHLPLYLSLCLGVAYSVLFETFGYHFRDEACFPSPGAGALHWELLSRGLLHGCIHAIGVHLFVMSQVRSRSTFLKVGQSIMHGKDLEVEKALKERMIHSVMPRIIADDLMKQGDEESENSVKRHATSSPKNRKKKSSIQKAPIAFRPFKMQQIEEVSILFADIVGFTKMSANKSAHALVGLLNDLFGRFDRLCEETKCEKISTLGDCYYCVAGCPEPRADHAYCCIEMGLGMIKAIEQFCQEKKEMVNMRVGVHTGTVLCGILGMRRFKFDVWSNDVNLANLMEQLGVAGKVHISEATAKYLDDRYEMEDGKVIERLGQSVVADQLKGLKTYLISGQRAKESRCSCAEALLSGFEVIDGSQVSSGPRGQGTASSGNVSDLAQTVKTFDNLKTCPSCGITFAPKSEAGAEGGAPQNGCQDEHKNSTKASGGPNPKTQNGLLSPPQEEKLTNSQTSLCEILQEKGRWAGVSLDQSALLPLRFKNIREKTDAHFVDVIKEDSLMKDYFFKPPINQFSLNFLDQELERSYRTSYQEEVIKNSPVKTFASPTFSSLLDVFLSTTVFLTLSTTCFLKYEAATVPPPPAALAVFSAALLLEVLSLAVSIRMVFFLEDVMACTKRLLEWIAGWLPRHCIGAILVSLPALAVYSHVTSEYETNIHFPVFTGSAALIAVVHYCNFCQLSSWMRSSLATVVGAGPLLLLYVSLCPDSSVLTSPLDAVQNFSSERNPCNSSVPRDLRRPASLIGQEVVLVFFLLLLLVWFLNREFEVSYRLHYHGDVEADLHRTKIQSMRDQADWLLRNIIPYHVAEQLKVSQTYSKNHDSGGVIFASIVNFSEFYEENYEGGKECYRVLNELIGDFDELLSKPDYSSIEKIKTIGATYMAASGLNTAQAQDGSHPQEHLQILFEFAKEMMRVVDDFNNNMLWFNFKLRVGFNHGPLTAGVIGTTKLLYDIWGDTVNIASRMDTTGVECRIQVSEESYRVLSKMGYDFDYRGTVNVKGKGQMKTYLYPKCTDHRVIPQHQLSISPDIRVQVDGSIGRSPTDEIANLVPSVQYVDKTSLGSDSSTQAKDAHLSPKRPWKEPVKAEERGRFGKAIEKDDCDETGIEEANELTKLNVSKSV

V5-tagged Hsp20 = biological target: T3, V5-tagged Hsp20 (UniProt O14558); assay: as above
T3 sequence: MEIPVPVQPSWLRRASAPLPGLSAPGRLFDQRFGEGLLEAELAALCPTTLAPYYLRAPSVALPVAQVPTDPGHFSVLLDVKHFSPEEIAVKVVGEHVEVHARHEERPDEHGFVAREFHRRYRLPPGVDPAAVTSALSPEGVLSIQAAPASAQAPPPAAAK

YFP-tagged AC9 (human) = biological target: T4, YFP-tagged AC9 (human) (UniProt O60503); assay: proximity ligation; Duolink in situ PLA in transfected, fixed HEK293 cells; anti-Hsp20, anti-GFP, anti-Gβγ primary antibodies; high content microscopy, positive cells 4 or more dots
T4 sequence: T2 sequence

B3: Flag-tagged AC9 (enzyme, UniProt O60503 1-1353)
chain: T2 sequence
binding (V5-tagged Hsp20): binds

B4: Hsp20 (in the proximity ligation assay) (protein, UniProt O14558 1-160)
chain: T3 sequence
binding (YFP-tagged AC9 (human)): binds

Results, then the binder that gave them:

binding [1]: binds
B1: Adenylyl cyclase type 9 (enzyme, UniProt P51830 1-1353)
chain: MASSPHQQLLHHHSTEVSCDSSGDSNSVRVKINPKQLSSNTHPKHCKYSISSSCSSSGDSGGLPRRVGGGGRLRRQKKLPQLFERASSRWWDPKFDSMNLEEACLERCFPQTQRRFRYALFYVGFACLLWSIYFAVHMKSKVIVMVVPALCFLVVCVGFFLFTFTKLYARHYAWTSLALTLLVFALTLAAQFQVWTPLSGRVDSSNHTLTATPADTCLSQVGSFSICIEVLLLLYTVMQLPLYLSLFLGVVYSVLFETFGYHFRNEDCYPSPGPGALHWELLSRALLHVCIHAIGIHLFVMSQVRSRSTFLKVGQSIMHGKDLEVEKALKERMIHSVMPRIIADDLMKQGDEESENSVKRHATSSPKNRKKKSSIQKAPIAFRPFKMQQIEEVSILFADIVGFTKMSANKSAHALVGLLNDLFGRFDRLCEQTKCEKISTLGDCYYCVAGCPEPRADHAYCCIEMGLGMIKAIEQFCQEKKEMVNMRVGVHTGTVLCGILGMRRFKFDVWSNDVNLANLMEQLGVAGKVHISEATAKYLDDRYEMEDGRVIERLGQSVVADQLKGLKTYLISGQRAKESHCSCAEALLSGFEVIDDSRESSGPRGQGTASPGSVSDLAQTVKTFDNLKTCPSCGITFAPKSEAGAEGGTVQNGCQDEPKTSTKASGGPNSKTQNGLLSPPAEEKLTNSQTSLCEILQEKGRWAGVSLDQSALLPLRFKNIREKTDAHFVDVIKEDSLMKDYFFKPPINQFSLNFLDQELERSYRTSYQEEVIKNSPVKTFASATFSSLLDVFLSTTVFLILSITCFLKYGATATPPPPAALAVFGADLLLEVLSLIVSIRMVFFLEDVMTCTKWLLEWIAGWLPRHCIGAILVSLPALAVYSHITSEFETNIHVTMFTGSAVLVAVVHYCNFCQLSSWMRSSLATIVGAGLLLLLHISLCQDSSIVMSPLDSAQNFSAQRNPCNSSVLQDGRRPASLIGKELILTFFLLLLLVWFLNREFEVSYRLHYHGDVEADLHRTKIQSMRDQADWLLRNIIPYHVAEQLKVSQTYSKNHDSGGVIFASIVNFSEFYEENYEGGKECYRVLNELIGDFDELLSKPDYNSIEKIKTIGATYMAASGLNTAQCQEGGHPQEHLRILFEFAKEMMRVVDDFNNNMLWFNFKLRVGFNHGPLTAGVIGTTKLLYDIWGDTVNIASRMDTTGVECRIQVSEESYRVLSKMGYDFDYRGTVNVKGKGQMKTYLYPKCTDNGVVPQHQLSISPDIRVQVDGSIGRSPTDEIANLVPSVQYSDKASLGSDDSTQAKEARLSSKRSWREPVKAEERFPFGKAIEKDSCEDIGVEEASELSKLNVSKSV

binding (Flag-tagged AC9 (human)): binds
B2: V5-tagged Hsp20 (protein, UniProt O14558 1-160)
chain: T3 sequence
